PubChem BioAssay AID1259308 – NCATS – 2017

- Aim: 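Candidate targets for better recombinant protein yield in mammalian cells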 (primary screen)
- Cell system: human HEK293 embryonic kidney cells stably expressing firefly luciferase (HEK-CMV-Luc2-Hygro)
- Reagents: single siRNA against human genes, 0.8 pmol siRNA per well
- Timing: 72 h
- Read-out: 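Luciferase light (ONE-Glo) measured on one replicate plate set and viability (CellTiter-Glo) on the other, scaled to a negative control siRNA, with robust z-scores and luciferase per cell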
- Scale: total luciferase, z-score: higher = more reporter protein produced
- Rule for the call: 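An siRNA counts as active if its total luciferase robust z-score exceeds 3; genes with two or more such siRNAs out of three were retested with fresh siRNAs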
- Calls: active = raised luciferase; inactive = no rise
Here is one part, drawn at random, of about 59,000 reagents tested. In the full data, about 1,510 (2.6%) were called active. 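Calls use total luciferase alone and ignore viability, so some active siRNAs may act by altering cell number.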 Not all columns of the deposit are shown.

total luciferase, z-score, by target gene and reagent
METTL5 (methyltransferase 5, N6-adenosine): SID160739014 -1.36 inactive; SID160739015 0.0533 inactive; SID160739017 0.0759 inactive
RPS14P3 (ribosomal protein S14 pseudogene 3): SID160725705 0.679 inactive; SID160725706 0.616 inactive; SID160725707 -1.94 inactive
ST6GAL2 (ST6 beta-galactoside alpha-2,6-sialyltransferase 2): SID160752451 0.0462 inactive; SID160752452 -0.557 inactive; SID160752453 0.0327 inactive
GOLM1 (golgi membrane protein 1): SID160740483 -0.957 inactive; SID160740484 -0.362 inactive; SID160740485 0.116 inactive
ARHGEF6 (Rac/Cdc42 guanine nucleotide exchange factor 6): SID160722264 -1.82 inactive; SID160722265 -0.162 inactive; SID160722266 -0.646 inactive
SAMSN1 (SAM domain, SH3 domain and nuclear localization signals 1): SID160733214 0.419 inactive; SID160747433 0.307 inactive; SID160747434 -0.419 inactive; SID160747436 0.623 inactive; SID160765998 0.89 inactive; SID160765999 1.71 inactive
OR4S2 (olfactory receptor family 4 subfamily S member 2): SID160761249 -0.429 inactive; SID160761250 0.0293 inactive; SID160761251 1.85 inactive
ESYT2 (extended synaptotagmin 2): SID160746085 -0.271 inactive; SID160746086 0.218 inactive; SID160746087 0.883 inactive
IL6R (interleukin 6 receptor): SID160775724 0.702 inactive; SID160775725 -1.64 inactive; SID160775726 -0.527 inactive
DACT2 (dishevelled binding antagonist of beta catenin 2): SID160732623 -0.182 inactive; SID160760281 0.0852 inactive; SID160760282 -0.175 inactive
ATF6 (activating transcription factor 6): SID160730810 -0.163 inactive; SID160733634 0.53 inactive; SID160733652 -0.291 inactive
CREM (cAMP responsive element modulator): SID160727818 0.0995 inactive; SID160727819 -3.19 inactive; SID160727820 0.473 inactive

Laid out differently: results already given.
SAMSN1 (SAM domain, SH3 domain and nuclear localization signals 1) [SID160765999]: total luciferase, z-score = 1.71; call = inactive
OR4S2 (olfactory receptor family 4 subfamily S member 2) [SID160761249]: total luciferase, z-score = -0.429; call = inactive
OR4S2 (olfactory receptor family 4 subfamily S member 2) [SID160761250]: total luciferase, z-score = 0.0293; call = inactive
OR4S2 (olfactory receptor family 4 subfamily S member 2) [SID160761251]: total luciferase, z-score = 1.85; call = inactive
